Data taken from patent EP0772773B1, “Src SH3 BINDING PEPTIDES AND METHODS OF ISOLATING AND USING SAME” (THE UNIVERSITY OF NORTH CAROLINA, priority 1994, dated 2006).
Not every detail of the peptide structures is certain; ends, links or a residue may be inferred. Where a SMILES comes first, the peptide text is derived from it.

Test system: Xenopus laevis oocytes
Assay: Progesterone-induced oocyte maturation (germinal vesicle breakdown) after peptide injection
Assay type: cell-based
Conditions: stage VI oocytes injected with 40 nL of 100 mM peptide (100 µM in Fig. 10 legend), scored hourly, versus water

Compound: CC(C)C[C@H](NC(=O)[C@@H]1CCCN1C(=O)[C@@H]1CCCN1C(=O)[C@H](CCCCN)NC(=O)[C@@H]1CCCN1C(=O)[C@@H]1CCCN1C(=O)[C@H](C)NC(=O)[C@@H](N)CC(C)C)C(=O)N1CCC[C@H]1C(=O)N[C@@H](CCC(=O)O)C(=O)NCC(=O)N[C@@H](CCC(=O)O)C(=O)N[C@H](C(=O)O)C(C)C [LAPPKPPLPEGEV, reference compound] (H-LAPPKPPLPEGEV-OH)
- rate of progesterone-induced maturation (germinal vesicle breakdown): but not
